Counter-ions that a name gives are not always drawn. The list shows a part of the results. Many values rest on one well or one pass, so single values are uncertain.
Assays:
[1] = test system: Saos-2; test: cell viability (CCK-8) relative to DMSO control (% of control); higher = less cytotoxic; details: 10 µM; 48 h
[2] = test system: U2OS; test: as above; details: 10 µM; 48 h

| Compound | cell viability [1] | cell viability [2] |
| --- | --- | --- |
| O=C1CCC(N2C(=O)c3ccccc3C2=O)C(=O)N1 (stereo not given) [Thalidomide] | 69.3 | 94.5 |
| CC(=O)c1ccc(S(=O)(=O)NC(=O)NC2CCCCC2)cc1 [Acetohexamide] | 90.7 | 81.9 |
| Cc1nc(Nc2ncc(C(=O)Nc3c(C)cccc3Cl)s2)cc(N2CCN(CCO)CC2)n1 [Dasatinib] | 57.2 | 47 |
| CC(C)Cc1ccc(C(C)C(=O)O)cc1 (stereo not given) [Ibuprofen] | 55.5 | 103 |
| CNC(=C[N+](=O)[O-])NCCSCc1ccc(CN(C)C)o1 [Ranitidine·HCl] | 67.4 | 104 |
| O=C1CCCC(=O)C1C(=O)c1ccc(C(F)(F)F)cc1[N+](=O)[O-] [Nitisinone] | 102 | 99.6 |
| CNC[C@H](O)c1cccc(O)c1 [Phenylephrine] | 88.9 | 103 |
| O=C(O)C[C@H](O)C[C@H](O)/C=C/c1c(C2CC2)nc2ccccc2c1-c1ccc(F)cc1 [Pitavastatin Calcium] | 38.1 | 58.8 |
| COC(=O)C1=C(C)NC(C)=C(C(=O)OC(C)C)C1c1cccc2nonc12 (stereo not given) [Isradipine] | 120 | 120 |
| CNC[C@H](O)c1ccc(O)c(O)c1 [Epinephrine Bitartrate] | 59.1 | 102 |
| Cn1c(=O)c2[nH]cnc2n(C)c1=O [Aminophylline] | 63.2 | 104 |
| Nc1nc(Cl)nc2c1ncn2[C@@H]1O[C@H](CO)[C@@H](O)[C@@H]1F [Clofarabine] | 40.7 | 99.1 |
| CC1(C)S[C@@H]2[C@H](NC(=O)Cc3ccccc3)C(=O)N2[C@H]1C(=O)O [Penicillin G potassium salt] | 109 | 108 |
| CNCC[C@@H](Oc1ccccc1C)c1ccccc1 [Atomoxetine . Hydrochloride] | 109 | 85.7 |
| CNC(=O)c1cc(Oc2ccc(NC(=O)Nc3ccc(Cl)c(C(F)(F)F)c3)cc2)ccn1 [Sorafenib tosylate] | 76.3 | 101 |
| CN(C)CC/C=C1/c2ccccc2COc2ccc(CC(=O)O)cc21 [Olopatadine] | 66.2 | 97.7 |
| CC1(C)O[C@@H]2C[C@H]3[C@@H]4C[C@H](F)C5=CC(=O)CC[C@]5(C)[C@H]4[C@@H](O)C[C@]3(C)[C@]2(C(=O)CO)O1 [Flurandrenolide] | 108 | 101 |
| CC1=C(/C=C/C(C)=C/C=C/C(C)=C\C(=O)O)C(C)(C)CCC1 [13-cis-Retinoic acid] | 96.2 | 91.9 |
| CCC1=C[C@@H]2CN(C1)Cc1c([nH]c3ccccc13)[C@@](C(=O)OC)(c1cc3c(cc1OC)N(C)[C@H]1[C@@](O)(C(=O)OC)[C@H](OC(C)=O)[C@]4(CC)C=CCN5CC[C@]31[C@@H]54)C2 [Vinorelbine] | 28.1 | 80.1 |
| CC(=O)OC(C)C[N+](C)(C)C (stereo not given) [Methacholine Chloride] | 94.6 | 90.6 |
| Nc1nc(=O)n([C@@H]2CS[C@H](CO)O2)cc1F [Emtricitabine] | 60.1 | 113 |
| CC(=O)OC[C@H]1O[C@@H]([S-])[C@H](OC(C)=O)[C@@H](OC(C)=O)[C@@H]1OC(C)=O.CCP(CC)CC.[Au+] [Auranofin] | 14.9 | 12.9 |
| CC1(C)S[C@@H]2[C@H](NC(=O)[C@H](N)c3ccccc3)C(=O)N2[C@H]1C(=O)O [Ampicillin Trihydrate] | 66.8 | 99.2 |
| C[C@]12CC[C@@H]3c4ccc(O)cc4CC[C@H]3[C@@H]1CC[C@@H]2O [17β-Estradiol] | 70 | 114 |
| N=C(N)NCCCC[C@@H]1NC(=O)CCSSC[C@@H](C(N)=O)NC(=O)[C@@H]2CCCN2C(=O)[C@H](Cc2c[nH]c3ccccc23)NC(=O)[C@H](CC(=O)O)NC(=O)CNC1=O [Eptifibatide] | 102 | 77.9 |
| COc1ccc(OC)c(C(O)CNC(=O)CN)c1 (stereo not given) [Midodrine·HCl] | 110 | 111 |
| O=C(O[C@@H]1C[C@@H]2C[C@H]3C[C@H](C1)N2CC3=O)c1c[nH]c2ccccc12 [Dolasetron] | 60.6 | 111 |
| CCN(CCO)CCCC(C)Nc1ccnc2cc(Cl)ccc12 (stereo not given) [Hydroxychloroquine Sulfate] | 98.1 | 93.1 |
| NC(N)=Nc1nc(CSCC/C(N)=N/S(N)(=O)=O)cs1 [Famotidine] | 66 | 95.1 |
| Oc1ncnc2[nH]ncc12 [Allopurinol] | 58.7 | 105 |

A different layout for part of the listing above:
Compound	cell viability [1]	cell viability [2]
CNC(=O)c1cc(Oc2ccc(NC(=O)Nc3ccc(Cl)c(C(F)(F)F)c3)cc2)ccn1 [Sorafenib tosylate]	76.3	101
CN(C)CC/C=C1/c2ccccc2COc2ccc(CC(=O)O)cc21 [Olopatadine]	66.2	97.7
